Source: patent US9585905B2, “Sweet taste receptor antagonist compositions” (Four LLC, priority 2014, dated 2017)

Test system: sweet taste (10% sucrose reference)
Experiment: Duration of sweet taste blockade: sensory panelist rates sweetness intensity (SI) of 10% sucrose after 5 min oral exposure to sample
Format: in vivo, human
Experimental: A standard method was developed to quantify the duration of sweet taste blockade for the gymnemic acid compositions of the present invention. […] In all cases, sucrose was used as the sweetener in sweet taste blockade quantification. Thus, 10%, 8%, 6%, 4%, and 2% (w/v) sucrose solutions in reverse osmosis (RO) purified water were freshly prepared and, at the beginning of each experiment, 15 mL samples of each sucrose solution were used to calibrate sensory panelist on sweetness intensity. The sensory panelist is described as a person with training in sensory evaluation with at least 1 year of experience as a sensory panelist in the area of gustatation, and preferably with training in descriptive analysis. Standard scaling methodology was used for quantification of sweetness intensity (SI) on the following scale: • 10% sucrose=10, • 8% sucrose=8, • 6% sucrose=6, • 4% sucrose=4, • 2% sucrose=2, and • 0% sucrose=0.
Following panelist calibration with the sucrose reference standards, the panelist rinsed their mouth with 15 mL RO water and the sweetness inhibitor sample in 15 mL RO water was then immediately taken into the mouth and gently agitated for 5 minutes. The sweet taste inhibitor sample was then expectorated and a 15 mL sample of the 10% sucrose reference solution was then immediately re-tasted, perceived SI within 15 seconds was rated on the 0-10 scale, the sample expectorated, and the mouth rinsed vigorously with 15 mL RO water. The 10% sucrose sample was then re-tasted every 15 min and SI rated. The panelist was asked to make comments on the observations of non-sweet taste attributes at each sucrose reference tasting interval.

Measured: Comments & Observations

B1: Miraculin (protein, UniProt P13087 30-220, looked up)
Miraculin: DSAPNPVLDIDGEKLRTGTNYYIVPVLRDHGGGLTVSATTPNGTFVCPPRVVQTRKEVDHDRPLAFFPENPKEDVVRVSTDLNINFSAFMPCRWTSSTVWRLDKYDESTGQYFVTIGGVKGNPGPETISSWFKIEEFCGSGFYKLVFCPTVCGSCKVKCGDVGIYIDQKGRRRLALSDKPFAFEFNKTVYF
Strong sweetness and no other taste.: panelist comments at 0 min tasting of 10% sucrose | panelist comments at 15 min tasting of 10% sucrose | panelist comments at 30 min tasting of 10% sucrose | panelist comments at 45 min tasting of 10% sucrose | panelist comments at 60 min tasting of 10% sucrose | panelist comments at 75 min tasting of 10% sucrose | panelist comments at 90 min tasting of 10% sucrose | panelist comments at 105 min tasting of 10% sucrose | panelist comments at 120 min tasting of 10% sucrose
